Most values lie at the floor of the assay. Slopes are relative: functional sequences can read slightly below zero.
These substances were tested on Saccharomyces cerevisiae PS128 hsf1 delta, HSF1(1-493) fusion (assay: growth estimate (transactivation domain function in HSF1 fusion, heat-shock survival) (a.u. (slope of normalised read count over time)); higher = stronger growth at 37°C, i.e. more transactivation activity). Settings: library: random library.
Method: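 Random 60-nt DNA library encoding peptides of up to 20 aa, fused to the C-terminus of yeast HSF1 residues 1-493 (C-terminal TAD deleted) and expressed from the native HSF1 promoter on a CEN plasmid in hsf1-deleted S. cerevisiae PS128. Cells were selected at 37°C on -trp 5-FOA plates for 0, 2, 4, 6 and 8 days and amplicons were sequenced. Growth estimate is the slope of a robust linear fit of total-sum-normalised read counts (normalised to the first time point) over time, using at least 2 replicates. Sequences are classed functional (TAD activity) above a threshold of -0.13, set from stop-codon control sequences.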

Row | Substance | growth estimate
1 | GSACGFLCVFDPFSA | < -0.253
2 | GSAKRLLHKLIQVDNLVPGP | -0.241
3 | GSALAFFLPVRGWYWPPGTN | < -0.25
4 | GSASL | < -0.25
5 | GSAYGMVPTFKRHMSWCTQD | < -0.25
6 | GSDRLAGARVYVLRGEGDGN | < -0.25
7 | GSDVS | < -0.25
8 | GSEAAAWLAIICRNEFLRAV | < -0.25
9 | GSEEDRIQQIVLR | < -0.25
10 | GSEGQEFLGGHRALGLSARG | < -0.25
11 | GSEPEWNSGYLVVGEGRVPG | < -0.25
12 | GSETWTGCKTREQN | < -0.25
13 | GSEVERQ | < -0.25
14 | GSFA | < -0.25
15 | GSFIGMQASVILER | < -0.25
16 | GSFRLGLFPDG | < -0.25
17 | GSFVTCEIDFAMRLFQSTVG | < -0.25
18 | GSGGHAISWVTY | < -0.25
19 | GSGLAFRSGNDEHEAVRL | -0.241
20 | GSGPPFFLSSLMERHLLCLQ | -0.241
21 | GSGRAYMR | < -0.25
22 | GSGSQGVGVLRATYRMC | < -0.25
23 | GSGVGGSIRKNSYELLWTRW | < -0.25
24 | GSHSGKEALSFLSC | < -0.25

Row | Substance | growth estimate
25 | GSIEGDY | < -0.25
26 | GSIFEASARRRCAFESDTAA | < -0.25
27 | GSIGFKLHN | < -0.25
28 | GSIIRRGVTMRH | < -0.25
29 | GSILQRAVIGYSIRVESRSI | < -0.25
30 | GSKQTELGRA | -0.203
31 | GSLC | < -0.25
32 | GSLLVFNIISLGRDLIFS | < -0.25
33 | GSLSYFPAVPEGSSGTLGAG | < -0.25
34 | GSLTLARHSILVGICSRHPR | < -0.25
35 | GSLVRKHPPWGPSVRVSPRC | < -0.25
36 | GSMSRAFAVY | < -0.25
37 | GSNRMYPRPRVTGSSERSS | < -0.25
38 | GSPYNCERVIGSRGVRRRV | < -0.25
39 | GSQ | < -0.25
40 | GSRFPPGLPL | < -0.25
41 | GSRGCTQPGSACMVRGC | < -0.25
42 | GSRLLRCRACHGNSLRIYPL | < -0.25
43 | GSRPSTFPPAGVTVTRSRTR | < -0.25
44 | GSS | < -0.25
45 | GSSDPSYVIVSVP | < -0.25
46 | GSSMSP | < -0.25
47 | GSSQVADAYL | < -0.25
48 | GSSWGTQSC | < -0.25

Row | Substance | growth estimate
49 | GSSYALVTRTGRRTVGTQLK | < -0.25
50 | GSTQKIWDLENA | < -0.25
51 | GSTRSATLMRSSRGHSTVLP | < -0.25
52 | GSTTGRALV | < -0.25
53 | GSTTSKFKGGIDLAARPDSA | -0.231
54 | GSTWLKLSQIAGLYLRTRLM | < -0.25
55 | GSTYDRRRRPLLQWICSRLL | < -0.25
56 | GSV | < -0.25
57 | GSVAWCRPGTTSGLRLPGRD | < -0.25
58 | GSVGLPGGFGWFFQSSKYGV | < -0.25
59 | GSVLWGAFLLARRSAYKSKR | < -0.25
60 | GSVNLEVFDKCAEV | < -0.25
61 | GSVRLRYTLMERSVLKGLGG | < -0.25
62 | GSWAGTVGNENDKKTR | < -0.25
63 | GSYNLRGNSCTASVCGFGDP | < -0.25
64 | GTAKWCRTHWPEVLALPRAA | < -0.25
65 | GTAMGGWLA | < -0.25
66 | GTARFHLSIRHLVSKLRV | < -0.25
67 | GTAWAGDTHRSIPPDVMGLT | < -0.25
68 | GTCWVVKGRPRRLERSRPLY | < -0.25
69 | GTDQSLHVFHDMCHRASESG | < -0.25
70 | GTFIGTLAEFSR | < -0.25
71 | GTFVRVGCRMVGAYLRAAET | < -0.25
72 | GTGGRVS | < -0.25

Random excerpt: 3 entries already listed, in no set order.
Row | Substance | growth estimate
4 | GSASL | < -0.25
53 | GSTTSKFKGGIDLAARPDSA | -0.231
57 | GSVAWCRPGTTSGLRLPGRD | < -0.25

Remaining list, next part:

Row | Substance | growth estimate
73 | GTGSAGRKGRNGV | < -0.25
74 | GTGVIATMFVSSGAGVRVRV | < -0.25
75 | GTHDEVAGGLTGPSEWRLVL | < -0.25
76 | GTHFLVTGGNNGPALSGTSR | < -0.25
77 | GTHSVRTRQRPERCQWSCPV | < -0.25
78 | GTICV | < -0.25
79 | GTIEVKSQRRI | < -0.25
80 | GTKFHVPWGNS | -0.0569
81 | GTKIFAC | < -0.25
82 | GTKTPSTPLFWFIRLFHLLG | < -0.25
83 | GTLGTRPRIRAWFGLVVPGR | < -0.25
84 | GTNQWRIRARAVPQGFSRNR | < -0.25
85 | GTPQEQKVYISQRAISQSTT | < -0.25
86 | GTPTVSKVPGRCSVLQRLLR | < -0.25
87 | GTQARNGLV | -0.246
88 | GTQLRLLSGQSREILSFGCG | < -0.25
89 | GTRCKPAPV | < -0.25
90 | GTRELQSKLRPW | < -0.25
91 | GTRFKVWPGARTR | < -0.25
92 | GTRSGH | < -0.25
93 | GTRSQTTLIQCKFNYKSGNI | < -0.25

From the supplement of paper PMC5949888
